Values from PubChem BioAssay AID504808 (Drosophila RNAi Screening Center, 2011).
Test: 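Chromatin factors that keep E2F targets switched off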 (primary screen). Cell system: Drosophila S2 cells. Reagent: long dsRNA against Drosophila genes. Measured: 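Firefly luciferase driven by E2F sites, normalised to Renilla luciferase on the same minimal promoter, measured by plate reader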. Scale: E2F firefly: higher = more E2F reporter activity; Renilla normaliser: higher = more normaliser reporter signal. Hit rule: 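Called active if the normalised E2F reporter went up by over 50%; the cutoff is arbitrary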.
The deposit covers about 21,000 reagents; below is a random part of those that have a named target and a result. In the full data, 18 (0.084%) are marked active. 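Raw counts without plate normalisation, one of two replicates; the ratio scores behind the calls were not deposited.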 Reagents against one gene are numbered here. No sequences are given here. Not given: the amount of reagent, the time to read-out.

| gene knocked down | dsRNA no. | E2F firefly, rep 1 | Renilla normaliser, rep 1 | activity call |
| --- | --- | --- | --- | --- |
| Met | 1 | 1.50e5 | 6896 | inactive |
| CG32110 | 1 | 1.31e5 | 3938 | inactive |
| Arglu1 | 1 | 1.58e5 | 5072 | inactive |
| CG15207 (retired record) | 1 | 1.32e5 | 5927 | inactive |
| AANATL2 | 1 | 1.63e5 | 5351 | inactive |
| CG11044 | 1 | 1.63e5 | 5466 | inactive |
| CG7366 | 1 | 55364 | 3821 | inactive |
| JhI-21 | 1 | 73561 | 3428 | inactive |
| Trmt112 | 1 | 1.21e5 | 6626 | inactive |
| NijC | 1 | 1.43e5 | 6549 | inactive |
| Cdc2rk | 1 | 1.42e5 | 5323 | inactive |
| Smyd5 | 1 | 98521 | 5068 | inactive |
| Lip3 | 1 | 1.08e5 | 5824 | inactive |
| l(3)04053 | 1 | 69265 | 3430 | inactive |
| CG13293 | 1 | 94004 | 3932 | inactive |
| Pop1 | 1 | 8262 | 688 | inactive |
| CG43316 | 1 | 99651 | 4120 | inactive |
| CG43316 | 2 | 1.07e5 | 4115 | inactive |
| RpL22 | 1 | 1.17e5 | 5927 | inactive |
| CG30349 | 1 | 1.44e5 | 4677 | inactive |
| CG30349 | 2 | 1.53e5 | 4474 | inactive |
| LeuRS | 1 | 1.64e5 | 5354 | inactive |
| eIF3m | 1 | 2300 | 239 | inactive |
| CG2267 | 1 | 1.30e5 | 6466 | inactive |
| NC2alpha | 1 | 88604 | 3309 | inactive |
| mfas | 1 | 70956 | 3306 | inactive |
| CG32073 | 1 | 1.09e5 | 3798 | inactive |
| CG32073 | 2 | 1.01e5 | 5553 | inactive |
| CG32686 | 1 | 93202 | 2949 | inactive |
| CG13023 | 1 | 1.21e5 | 3966 | inactive |
| CG13023 | 2 | 1.53e5 | 8003 | inactive |
| ArgRS | 1 | 2.23e5 | 6719 | inactive |
| CG13426 | 1 | 1.50e5 | 4694 | inactive |
| CG8958 | 1 | 1.57e5 | 6652 | inactive |
| CG43325 | 1 | 1.05e5 | 4147 | inactive |
| Sfp26Ad | 1 | 1.12e5 | 5149 | inactive |
| CG9962 | 1 | 1.68e5 | 6068 | inactive |
| Dph1 | 1 | 63442 | 3014 | inactive |
| CG32457 | 1 | 79934 | 4118 | inactive |
| CG14456 | 1 | 1.27e5 | 6823 | inactive |
| mRpS14 | 1 | 1.33e5 | 5146 | inactive |
| St1 | 1 | 84843 | 3571 | inactive |
| Sobp | 1 | 3172 | 191 | inactive |
| CG3270 | 1 | 76784 | 3395 | inactive |
| CG15611 | 1 | 77696 | 4159 | inactive |
| CG15611 | 2 | 1.50e5 | 5113 | inactive |
| fau | 1 | 80101 | 3535 | inactive |
| fau | 2 | 83221 | 3753 | inactive |
| fau | 3 | 75512 | 3608 | inactive |
| fau | 4 | 1.30e5 | 7588 | inactive |
| fau | 5 | 1.44e5 | 7161 | inactive |
| TwdlH | 1 | 1.16e5 | 7414 | inactive |
| TotC | 1 | 77227 | 2300 | inactive |
| AsnRS | 1 | 74319 | 2717 | inactive |
| Abca3 | 1 | 1.42e5 | 5833 | inactive |
| CG2021 | 1 | 89796 | 4061 | inactive |
| Lamtor1 | 1 | 1.33e5 | 6823 | inactive |
| CG4069 | 1 | 69737 | 3277 | inactive |
| Tusp | 1 | 1.00e5 | 7238 | inactive |
| CG8419 | 1 | 1.51e5 | 4683 | inactive |
| CG18327 | 1 | 98437 | 4465 | inactive |
| Obp57e | 1 | 1.84e5 | 5727 | inactive |
| Graf | 1 | 8044 | 796 | inactive |
| Mul1 | 1 | 95603 | 4070 | inactive |
| CG13059 | 1 | 2.00e5 | 10666 | inactive |
| ProtB | 1 | 95070 | 4729 | inactive |
| Gpdh1 | 1 | 82977 | 3937 | inactive |
| Brms1 | 1 | 99973 | 5981 | inactive |
| CG11085 | 1 | 79718 | 5057 | inactive |
| CG17211 | 1 | 92832 | 3958 | inactive |
| CG5611 | 1 | 1.02e5 | 6316 | inactive |
| Nbr | 1 | 72294 | 3535 | inactive |
| CG9287 | 1 | 1.53e5 | 4889 | inactive |
| CG3558 | 1 | 76608 | 4095 | inactive |
| CG14455 | 1 | 1.20e5 | 6665 | inactive |
| yellow-e2 | 1 | 1.00e5 | 5643 | inactive |
| CG3808 | 1 | 1.22e5 | 6165 | inactive |
| CG2712 | 1 | 2074 | 880 | inactive |
| flap | 1 | 1.20e5 | 4680 | inactive |
| flap | 2 | 92652 | 3498 | inactive |
| IRSp53 | 1 | 1.18e5 | 7432 | inactive |
| Lipt1 | 1 | 1.60e5 | 5287 | inactive |
| Lipt1 | 2 | 67722 | 3537 | inactive |
| CG13590 | 1 | 1.12e5 | 4797 | inactive |

8 entries from above, reformatted.
gene knocked down	dsRNA no.	E2F firefly, rep 1	Renilla normaliser, rep 1	activity call
CG8419	1	1.51e5	4683	inactive
CG18327	1	98437	4465	inactive
Obp57e	1	1.84e5	5727	inactive
Graf	1	8044	796	inactive
Mul1	1	95603	4070	inactive
CG13059	1	2.00e5	10666	inactive
ProtB	1	95070	4729	inactive
Gpdh1	1	82977	3937	inactive
